In patent publication US20030180385A1 (priority 2002, published 2003):

Key:
[1] = tested on: red wheat (Vance Wheat) seeds; assay: Seed color values on red wheat, varying concentration and time
Triticum aestivum seeds = assay: Percentage of aleurone and pericarp (microscope fields), wheat; settings: steeped 1 hour, mean of 390 microscope fields
Triticum durum seeds = assay: Seed color values (Yxy, Minolta C100 Chroma Meter), durum wheat; settings: steeped 1 hour, NaOH 0.25%; for Color values Lightness (Y): means of four replications

OCl [Hypochlorite 1.6%, hypochlorite]
Color values Lightness ([1]; 0.5 h): 71.8475
Color values Redness ([1]; 0.5 h): 0.3327
Color values Lightness ([1]; 1 h): 74.1725
Color values Redness ([1]; 1 h): 0.3321
Color values Lightness ([1]; 2 h): 75.675
Color values Redness ([1]; 2 h): 0.3314
Aleurone (%) (Triticum aestivum seeds; listed as H 1.6%): 8.95%
Pericarp (%) (Triticum aestivum seeds; listed as H 1.6%): 4.66%
Color values Redness (x) (Triticum durum seeds; listed as H 1.6%): 0.3445
Color values Lightness (Y) (Triticum durum seeds; listed as H 1.6%): 70.6825

OCl [Hypochlorite 3.3%, hypochlorite]
Color values Lightness ([1]; 0.5 h): 72.7825
Color values Redness ([1]; 0.5 h): 0.3332
Color values Lightness ([1]; 1 h): 75.8925
Color values Redness ([1]; 1 h): 0.3316
Color values Lightness ([1]; 2 h): 76.85
Color values Redness ([1]; 2 h): 0.3311

OCl [Hypochlorite 0.8%, hypochlorite]
Color values Lightness ([1]; 0.5 h): 70.5025
Color values Redness ([1]; 0.5 h): 0.3347
Color values Lightness ([1]; 1 h): 73.0425
Color values Redness ([1]; 1 h): 0.3335
Color values Lightness ([1]; 2 h): 73.68
Color values Redness ([1]; 2 h): 0.3318
Aleurone (%) (Triticum aestivum seeds; listed as H 0.8%): 9.49%
Pericarp (%) (Triticum aestivum seeds; listed as H 0.8%): 4.06%
Color values Redness (x) (Triticum durum seeds; listed as H 0.8%): 0.3462
Color values Lightness (Y) (Triticum durum seeds; listed as H 0.8%): 71.0025

OCl [hypochlorite]
Color values Lightness ([1]; 2 h): 76.8
Color values Redness ([1]; 2 h): 0.3311
Color values Lightness (Y) (Triticum durum seeds; listed as hypochlorite solutions): 71.0

[Na+].[OH-] [NaOH 0.25%, sodium hydroxide]
Color values Lightness ([1]; 0.5 h): 63.6275
Color values Redness ([1]; 0.5 h): 0.3362
Color values Lightness ([1]; 1 h): 65.26
Color values Redness ([1]; 1 h): 0.3371
Color values Lightness ([1]; 2 h): 64.1125
Color values Redness ([1]; 2 h): 0.3378
